From patent US8148392B2, “2-indolyl imidazo [4,5-d] phenanthroline derivatives and their use in the treatment of cancer” (Lorus Therapeutics Inc., priority 2005, dated 2012)
At least one compound was matched to its structure with a doubt left.

Tests used:
[1] = test system: MDA-MB-231 breast cancer cells; assay: XTT cell proliferation assay, MDA-MB-231; assay type: cell-based, human; details: read-out: IC50 (cell growth inhibition)
Description: Cell growth inhibition IC50 (μM) by compounds of Formula I was tested on various cancer cell types by XTT cell proliferation assay. The growth inhibitory effects of the compounds of Formula I as shown below for the melanoma cell line SK-MEL-2 were reproducible by Lorus Therapeutics Inc.

[2] = test system: human colon carcinoma HT-29 cells; assay: XTT cell proliferation assay, HT-29; assay type: cell-based; details: HT-29, XTT, as Example 13, Table 7
Description: The ability of compounds of Formula I to inhibit the proliferation of human colon carcinoma HT-29 cells was tested as follows. HT-29 colon carcinoma cells used in this example and subsequent examples were maintained as a monolayer in a growth medium; McCoy's 5A modified medium (Sigma, St. Louis, Mo.), supplemented with 2 mM L-glutamine (Gibco, Grand Island, N.Y.), 10% fetal bovine serum (FBS) (Multicell, WISENT Inc. St-Bruno, QC), antibiotic-antimycotic (Multicell), at 37° C. in a 5% CO2-humidified incubator. Cells were transferred onto 150 mm tissue culture plates and grown until sub-confluency (70-80%) prior to their use. The in vitro antiproliferative activity of compounds was evaluated by incubating the cells with varying concentrations of the compounds as shown in Table 1 for 6-7 days. The efficacy of these compounds in this cell proliferation assay was measured based in the ability of live cells to reduce the tetrazolium salt XTT to orange colored compounds of formazan (XTT cell proliferation kit II, Roche Applied Science, Montreal, QC).
The ability of compounds of Formula I to inhibit the proliferation of human colon carcinoma HT-29 cells was tested as described above in Example 13.
Cell growth inhibition IC50 (μM) by compounds of Formula I was tested on various cancer cell types by XTT cell proliferation assay. […]

CCc1cccc2c(-c3nc4c5cccnc5c5ncccc5c4[nH]3)c(C(C)(C)C)[nH]c12 [Compound 64]
IC50 [1]: 5 µM

CN(C)S(=O)(=O)c1ccc2[nH]c(C(C)(C)C)c(-c3nc4c5cccnc5c5ncccc5c4[nH]3)c2c1 [Compound 67]
IC50 [2]: >5, 25<
